We go through 48 compounds from paper PMC6925144, “A prospective compound screening contest identified broader inhibitors for Sirtuin 1” (Scientific Reports, 2019).

Chains of the proteins cited; added tags and fusions are not shown. Residues count along the entry.
UniProt Q96EB6, 2-747 limits assumed: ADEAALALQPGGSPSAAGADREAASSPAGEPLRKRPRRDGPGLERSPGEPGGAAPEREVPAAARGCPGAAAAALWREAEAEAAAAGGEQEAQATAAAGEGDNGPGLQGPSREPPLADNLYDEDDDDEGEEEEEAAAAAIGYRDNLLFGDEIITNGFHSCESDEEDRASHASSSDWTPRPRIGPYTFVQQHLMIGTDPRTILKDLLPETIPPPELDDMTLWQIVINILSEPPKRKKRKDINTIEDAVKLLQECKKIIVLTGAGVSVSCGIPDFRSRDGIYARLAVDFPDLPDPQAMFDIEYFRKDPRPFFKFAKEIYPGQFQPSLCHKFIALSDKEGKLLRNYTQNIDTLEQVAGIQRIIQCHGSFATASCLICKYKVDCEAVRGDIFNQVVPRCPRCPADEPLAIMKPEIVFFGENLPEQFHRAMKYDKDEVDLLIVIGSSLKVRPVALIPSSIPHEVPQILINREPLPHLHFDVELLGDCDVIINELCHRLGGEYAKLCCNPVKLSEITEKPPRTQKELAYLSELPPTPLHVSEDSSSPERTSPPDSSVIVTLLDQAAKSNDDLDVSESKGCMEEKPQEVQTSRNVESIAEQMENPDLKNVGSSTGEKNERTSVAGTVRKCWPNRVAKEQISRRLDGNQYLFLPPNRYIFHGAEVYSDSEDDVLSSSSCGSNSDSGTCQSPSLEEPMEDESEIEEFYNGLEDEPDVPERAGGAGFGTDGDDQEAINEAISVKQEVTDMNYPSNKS

Over roughly 3,200 compounds, “TSA(without NAD+) / Primary screening (TSA) / delta Tm (K)” has its median near -0.07; the highest 2% begin near 0.37. This is one part of the list.

The target in this test is NAD-dependent deacetylase Sirtuin 1 (human, UniProt Q96EB6). Kind of test: primary screen, delta tm. On the set-up: single well (n = 1). Conditions: 10 µM. The procedure, abridged: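 Thermal shift of Sirtuin 1 measured without NAD+, compound at 10 µM (n = 1); value is ΔTm, with hits defined as ΔTm > 0.45 K or < −1.5 K. Hits retested at 5, 10, 20 µM (n = 4) and counterscreened on bovine carbonic anhydrase and ABL1 SH2 domain.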
For the compound `C=C(CC)CN`, the “TSA(without NAD+) / Primary screening (TSA) / delta Tm (K)” value is listed as -0.12 K.
The result for `NCCCN` reads -0.21 K; that for `Nc1ccnn1Cc1ccc(Cl)cc1Cl`, -0.15 K; that for `O=C1NC(=S)NC(=O)C1=CNc1ccc(Cl)c(Cl)c1`, -0.18 K.
As for `COc1ccc(OC)c(NCCn2c(C)cn3c4c(=O)[nH]c(=O)n(C)c4nc23)c1`, the “TSA(without NAD+) / Primary screening (TSA) / delta Tm (K)” value is listed as -0.54 K.
For `Oc1c(Br)cc2oc3c(c2c1/C=N/c1cccc2ccccc12)CCCC3`, the “TSA(without NAD+) / Primary screening (TSA) / delta Tm (K)” value is given as 0.07 K.
In the case of `O=Cc1cn(CCC(=O)O)nc1-c1ccccc1`, the “TSA(without NAD+) / Primary screening (TSA) / delta Tm (K)” value is reported as -0.08 K.
`COc1cc2c(cc1OC)CN(C(=O)c1cccc(S(=O)(=O)Nc3ccc(F)cc3)c1)CC2`: the “TSA(without NAD+) / Primary screening (TSA) / delta Tm (K)” value was -0.04 K.
For `NC(=O)c1ccc(CNC2CCCCCC2)o1` the value was -0.05 K; for `CN(c1ccccc1)S(=O)(=O)c1cccc(C(=O)NCCCOCCc2ccccc2)c1`, -0.18 K.
Take `CCc1ccc(C(NCC(=O)Nc2oc(C)c3c(C)n[nH]c(=O)c23)C(C)C)cc1` (stereo not drawn): the “TSA(without NAD+) / Primary screening (TSA) / delta Tm (K)” value is recorded as -0.18 K.
`O=C(O)C1CC(=O)N(c2ccc(S(=O)(=O)Nc3cccc([N+](=O)[O-])c3)cc2)C1` (stereo not drawn): the “TSA(without NAD+) / Primary screening (TSA) / delta Tm (K)” value is -0.18 K.
For the compound `CN1C(=O)c2oc3ccccc3c(=O)c2C1c1ccccc1F` (stereo not drawn), the “TSA(without NAD+) / Primary screening (TSA) / delta Tm (K)” value is listed as -0.13 K.
`O=Cc1c[nH]nc1-c1ccc2c(c1)OCO2`: the “TSA(without NAD+) / Primary screening (TSA) / delta Tm (K)” value is recorded as -0.12 K.
In the case of `COC(=O)c1ccc2[nH]c(CNC(=O)CSC)nc2c1`, the “TSA(without NAD+) / Primary screening (TSA) / delta Tm (K)” value is reported as -0.02 K.
On to `O=C(NCC1CC2c3ccccc3C1c1ccccc12)Nc1cccnn1` (stereo not drawn), for which the “TSA(without NAD+) / Primary screening (TSA) / delta Tm (K)” value is on record as -0.02 K.
Regarding `CC(N)CCCN` (stereo not drawn), the “TSA(without NAD+) / Primary screening (TSA) / delta Tm (K)” value was 0.08 K.
`CCN(CC)S(=O)(=O)c1cccc(C(=O)N[C@H](C(=O)NCC23CC4CC(CC(C4)C2)C3)C(C)C)c1`: the “TSA(without NAD+) / Primary screening (TSA) / delta Tm (K)” value is listed as -0.03 K.
The result for `CN(Cc1cnccn1)C(=O)Nc1ccc2c(c1)CCCN2C` reads -0.23 K; that for `Cn1c(-c2ccccc2)c(CO)c2ccccc21`, -0.07 K; that for `CCOCc1cn(CC(=O)c2ccc(CC)cc2)c(C)nc1=N`, -0.14 K.
Take `CC(N)CCCO` (stereo not drawn): the “TSA(without NAD+) / Primary screening (TSA) / delta Tm (K)” value is on record as -0.22 K.
Regarding `O=C(NC1CCOc2ccccc21)c1ccc2c(=O)n3c(nc2c1)CCC3` (stereo not drawn), the “TSA(without NAD+) / Primary screening (TSA) / delta Tm (K)” value is -0.08 K.
Regarding `CC(Nc1ccnc(CC#N)c1)C(=O)N1CCCCC1C` (stereo not drawn), the “TSA(without NAD+) / Primary screening (TSA) / delta Tm (K)” value is recorded as -0.28 K.
Regarding `COc1ccc(NC(=O)C2=COCCO2)cc1Cc1ccccc1`, the “TSA(without NAD+) / Primary screening (TSA) / delta Tm (K)” value came to 0.45 K.
The result for `CN(c1ccc(OCc2ccccc2C#N)cc1)S(=O)(=O)c1ccccc1` reads -0.12 K.
For `COc1ccc(N(C)S(=O)(=O)c2cccc(C(=O)Nc3ccc(OC)c(OC)c3)c2)cc1` the value was -0.31 K.
For `NC(=O)c1cccc(CCNC(=O)CCC(=O)c2ccc3c(c2)OCCO3)c1` the value was -0.24 K; for `O=C1NC(=S)N/C1=C/c1ccc(-c2ccccc2F)o1`, 0.05 K.
Regarding `NC(=O)c1cc2c(ccc3ccccc32)o/c1=N\c1ccc(Br)cc1`, the “TSA(without NAD+) / Primary screening (TSA) / delta Tm (K)” value is recorded as -0.32 K.
Turning to `CCCOc1ccc(C(=O)C2=C(O)C(=O)N(CCN3CCOCC3)C2c2ccco2)cc1` (stereo not drawn), the “TSA(without NAD+) / Primary screening (TSA) / delta Tm (K)” value was -0.02 K.
For `COc1cccc(N2CCCC(NC(=O)CCc3cnccn3)C2)c1` (stereo not drawn) the value was -0.14 K; for `NC(=O)c1ccc(NC(=O)CSc2nnc(-c3ccc4c(c3)OCO4)o2)cc1`, -0.03 K.
As to `O=C(C1=C(O)C(=O)N(CCCN2CCOCC2)C1c1ccccn1)c1ccco1` (stereo not drawn), the “TSA(without NAD+) / Primary screening (TSA) / delta Tm (K)” value is listed as -0.08 K.
On to `COC(=O)c1ccc2[nH]c3c(c2c1)CN(S(C)(=O)=O)CC3`, for which the “TSA(without NAD+) / Primary screening (TSA) / delta Tm (K)” value is -0.03 K.
Turning to `O=C1NC(=O)C(=Cc2cn(-c3ccccc3)nc2-c2cc3ccccc3oc2=O)C(=O)N1`, the “TSA(without NAD+) / Primary screening (TSA) / delta Tm (K)” value is listed as -0.43 K.
For the compound `Cn1c(COc2nc(-c3ccccc3Cl)no2)cc(=O)n(C)c1=O`, the “TSA(without NAD+) / Primary screening (TSA) / delta Tm (K)” value is reported as -0.05 K.
`Nc1ncnc(N2Cc3cccc(Br)c3C2)c1Cl`: the “TSA(without NAD+) / Primary screening (TSA) / delta Tm (K)” value was -0.21 K.
Regarding `COc1cccc(CCNC(C(N)=O)c2ccccc2)c1` (stereo not drawn), the “TSA(without NAD+) / Primary screening (TSA) / delta Tm (K)” value is on record as -0.13 K.
The result for `O=C1CCc2cc(NC(=O)c3cccnc3)ccc2N1` reads -0.04 K.
Turning to `O=C(c1sc2ccccc2c1Cl)N1CCCN(c2nnc(C(F)(F)F)s2)CC1`, the “TSA(without NAD+) / Primary screening (TSA) / delta Tm (K)” value is listed as -0.13 K.
Turning to `COc1ccc(C)cc1NCCn1c(C)c(C)n2c3c(=O)[nH]c(=O)n(C)c3nc12`, the “TSA(without NAD+) / Primary screening (TSA) / delta Tm (K)” value is -0.08 K.
For the compound `COc1ccc(CC(=O)NCCNC(=O)c2ccc(C)c(F)c2)cc1`, the “TSA(without NAD+) / Primary screening (TSA) / delta Tm (K)” value is -0.14 K.
Take `COC(=O)c1cc(NC(=O)CN2C(=O)NC(C)(c3ccc4ccccc4c3)C2=O)cc(C(=O)OC)c1` (stereo not drawn): the “TSA(without NAD+) / Primary screening (TSA) / delta Tm (K)” value was found to be 0.15 K.
For `Cc1ccc2c(CC(=O)Nc3ccccc3Cc3ccccc3)coc2c1`, the “TSA(without NAD+) / Primary screening (TSA) / delta Tm (K)” value amounted to 0.07 K.
The result for `CN(Cc1ccccc1)C(=O)NCC1CCN(c2ccncc2)CC1` reads -0.02 K.
As to `CN(c1ccc(O)cc1)S(=O)(=O)c1ccc2ccccc2c1`, the “TSA(without NAD+) / Primary screening (TSA) / delta Tm (K)” value stood at 0.07 K.
Consider `O=C(Oc1ccc2oc3ccccc3c2c1)c1ccc([N+](=O)[O-])cc1`, for which the “TSA(without NAD+) / Primary screening (TSA) / delta Tm (K)” value was -0.02 K.
